Assay results as given in publication PMC7673134.
No constants are given. Whether binding was seen depends on the method and setting. Binding seen in cells or lysates may run through a third protein. These calls come from enrichment with a bait or labelling near it, and not all partners need be listed.

Sequences of proteins named here, by UniProt entry; tags and fusion partners are left off.
UniProt Q94AH6: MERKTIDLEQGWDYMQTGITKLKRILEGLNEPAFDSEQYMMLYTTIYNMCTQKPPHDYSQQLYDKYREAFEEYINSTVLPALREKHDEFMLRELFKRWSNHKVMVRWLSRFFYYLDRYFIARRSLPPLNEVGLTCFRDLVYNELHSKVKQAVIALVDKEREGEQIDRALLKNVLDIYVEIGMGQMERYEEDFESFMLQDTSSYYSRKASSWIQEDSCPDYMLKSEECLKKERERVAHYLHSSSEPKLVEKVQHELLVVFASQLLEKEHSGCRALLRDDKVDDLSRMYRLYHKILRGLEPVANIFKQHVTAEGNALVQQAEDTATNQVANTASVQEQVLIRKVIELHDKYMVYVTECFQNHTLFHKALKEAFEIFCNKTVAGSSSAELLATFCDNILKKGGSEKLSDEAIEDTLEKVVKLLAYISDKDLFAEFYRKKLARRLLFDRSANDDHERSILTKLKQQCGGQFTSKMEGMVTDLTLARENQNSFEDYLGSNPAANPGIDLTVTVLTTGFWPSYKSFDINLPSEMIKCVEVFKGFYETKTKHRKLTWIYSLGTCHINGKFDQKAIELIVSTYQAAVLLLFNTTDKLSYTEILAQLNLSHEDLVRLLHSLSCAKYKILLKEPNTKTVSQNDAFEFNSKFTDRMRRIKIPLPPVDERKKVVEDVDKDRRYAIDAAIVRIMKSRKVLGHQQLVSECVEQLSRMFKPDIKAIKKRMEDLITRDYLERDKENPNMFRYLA

Experiments:
[1] = molecular target: Col-SSF414N-GFP (A. thaliana) (UniProt F4IL32); test: affinity purification with mass spectrometry; protein pulldown of GFP-tagged SSF from Col-SSF414N-GFP and Col-SSF414D-GFP transgenic plants; SDS-PAGE gel pieces, trypsin, nanoLC-MS/MS
[2] = molecular target: Col-SSF414D-GFP (A. thaliana); test: as above

binding [1] | binding [2] | Molecule
binds |  | CUL1 (At4g02570) (from UniProt Q94AH6 1-738)
binds | binds | CAND1 (At2g02560) (protein, UniProt Q8L5Y6 1-1219) MANLQVSGILEKFQMTGKDKDYRYMATSDLLNELNKDSFKIDLDLEVRLSSIILQQLDDVAGDVSGLAVKCLAPLVKKVGEERIVEMTNKLCDKLLHGKDQHRDTASIALRTVVAQIAPTLAPSILVTLTPQMIGGISGQGMSSGIKCECLEIMCDVVQKYGSLMTDDHEKLLNTLLLQLGCNQATVRKKTVTCIASLASSLSDDLLAKATVEVVKNLSNRNAKSEITRTNIQMIGALCRAVGYRFGTHLGNTVPVLINYCTSASENDEELREYSLQALESFLLRCPRDISPYCDEILNLTLEYISYDPNFTDNMEEDTDNETLEDEEDDESANEYTDDEDASWKVRRAAAKCLAGLIVSRSEMLTKVYQEACPKLIDRFKEREENVKMDVFNTFIDLLRQTGNVTKGQTDTDESSPKWLLKQEVSKIVKSINRQLREKSVKTKVGAFSVLRELVVVLPDCLADHIGSLVPGIERALNDKSSTSNLKIEALVFTKLVLASHAPPVFHPYIKALSSPVLAAVGERYYKVTAEALRVCGELVRVVRPSTAGMGFDFKPFVHPIYNAIMSRLTNQDQDQEVKECAITCMGLVISTFGDQLRAELPSCLPVLVDRMGNEITRLTAVKAFSVIATSPLHINLSCVLDHLIAELTGFLRKANRVLRQATLITMNTLVTAYGDKIGSEAYEVILVELSSLISVSDLHMTALALELCCTLMTGKSCSENISLAVRNKVLPQALTLVKSPLLQGQALLDLQKFFEALVYHANTSFYTLLESLLSCAKPSPQSGGVPKQALYSIAQCVAVLCLAAGDKNCSSTVKMLMEILKDDSGTNSAKQHLALLSLGEIGRRKDLSAHAGIETIVIESFQSPFEEIKSAASYALGNIAVGNLSNYLPFILDQIDNQQKKQYILLHSLKEVIVRQSVDKADFQNSSVEKILALLFNHCESEEEGVRNVVAECLGKMALIEPEKLVPALQVRTTSPAAFTRATVVTAVKYSVVERPEKLDEIIFPQISSFLMLIKDGDRHVRRAAVSALSTFAHYKPNLIKGLLPELLPLLYDQTVIKKELIRTVDLGPFKHVVDDGLELRKAAFECVFTLVDSCLDQVNPSSFIVPFLKSGLEDHYDLKMLCHLILSLLADKCPSAVLAVLDSLVEPLHKTISFKPKQDAVKQEHDRNEDMIRSALRAISSLDRINGVDYSHKFKGLMGDMKRSVPLWEKFQTIRNE
